Results are given in words; binding and its absence hold for the method and conditions named.
Target: S. cerevisiae Nab2 Zn fingers 5–7 F450A mutant (ZnF567^F450A) (S. cerevisiae) (UniProt P32505)
Assay: SEC-MALS; protein with a small excess of A12 RNA; Superdex 200 10/30, 20°C, 50 mM Tris pH 8.5, 100 mM NaCl, 2 mM Mg acetate, 100 μM ZnCl2, 1 mM DTT; both purified

B1: S. cerevisiae Nab2 Zn fingers 5–7 F450A mutant (ZnF567^F450A) (domain or fragment, UniProt P32505 409-485)
chain: EKSLEQCKFGTHCTNKRCKYRHARSHIMCREGANCTRIDCLAGHPINEDCRFGVNCKNIYCLFRHPPGRVLPEKKGA
  binding: no binding

From paper PMC5388407
